Measurements published in the supplement of paper PMC10077471.
In all, about 1,900 compounds were measured (“excess over highest single agent (ExcessHSA) synergy score, 6x6 matrix”: median about -83, lowest 2% from about -370 on). This is one part of the list.

Tested on: NCI-H446
Assay: excess over highest single agent (ExcessHSA) synergy score, 6x6 matrix; higher = less synergy (more negative = stronger synergy)
Details: 72 h; CellTiter-Glo viability

Compound | excess over highest single agent
Clc1ccc(C(Cn2ccnc2)OCc2c(Cl)cccc2Cl)c(Cl)c1 (stereo not drawn) + Cc1sc2c(c1C)C(c1ccc(Cl)cc1)=N[C@@H](CC(=O)OC(C)(C)C)c1nnc(C)n1-2 [NCGC00250412-19] | -42.3
CC(C)n1nc(-c2cc3cc(O)ccc3[nH]2)c2c(N)ncnc21 + Cc1sc2c(c1C)C(c1ccc(Cl)cc1)=N[C@@H](CC(=O)OC(C)(C)C)c1nnc(C)n1-2 [NCGC00250412-19] | -326
O=c1cc(-c2ccc(O)cc2)oc2cc(O)cc(O)c12 + Cc1sc2c(c1C)C(c1ccc(Cl)cc1)=N[C@@H](CC(=O)OC(C)(C)C)c1nnc(C)n1-2 [NCGC00250412-19] | 28.9
C[C@H](NC(=O)c1sccc1OCc1ccc(Cl)cc1)c1ccccc1 + Cc1sc2c(c1C)C(c1ccc(Cl)cc1)=N[C@@H](CC(=O)OC(C)(C)C)c1nnc(C)n1-2 [NCGC00250412-19] | -260
Cc1cn2c(-c3cn[nH]c3)cnc2c(Nc2ccc(C(=O)N3CCNCC3)cc2F)n1 + Cc1sc2c(c1C)C(c1ccc(Cl)cc1)=N[C@@H](CC(=O)OC(C)(C)C)c1nnc(C)n1-2 [NCGC00250412-19] | -31.9
C[C@@H](N)[C@H]1CC[C@H](C(=O)Nc2ccncc2)CC1 + Cc1sc2c(c1C)C(c1ccc(Cl)cc1)=N[C@@H](CC(=O)OC(C)(C)C)c1nnc(C)n1-2 [NCGC00250412-19] | -66.1
c1cnc2cc3c(cc2n1)[C@@H]1CNC[C@H]3C1 + Cc1sc2c(c1C)C(c1ccc(Cl)cc1)=N[C@@H](CC(=O)OC(C)(C)C)c1nnc(C)n1-2 [NCGC00250412-19] | -83.8
CN1CC[C@H](c2c(O)cc(O)c3c(=O)cc(-c4ccccc4Cl)oc23)[C@H](O)C1 + Cc1sc2c(c1C)C(c1ccc(Cl)cc1)=N[C@@H](CC(=O)OC(C)(C)C)c1nnc(C)n1-2 [NCGC00250412-19] | -258
Fc1ccc(C(OCCN2CCN(CCCc3ccccc3)CC2)c2ccc(F)cc2)cc1 + Cc1sc2c(c1C)C(c1ccc(Cl)cc1)=N[C@@H](CC(=O)OC(C)(C)C)c1nnc(C)n1-2 [NCGC00250412-19] | -135
Nc1nc(Cl)nc2c1ncn2[C@@H]1O[C@H](CO)[C@@H](O)[C@@H]1F + Cc1sc2c(c1C)C(c1ccc(Cl)cc1)=N[C@@H](CC(=O)OC(C)(C)C)c1nnc(C)n1-2 [NCGC00250412-19] | -267
CC(N[C@H]1C[C@H]1c1ccccc1)c1ccc2c(c1)OCCO2 (stereo partly drawn) + Cc1sc2c(c1C)C(c1ccc(Cl)cc1)=N[C@@H](CC(=O)OC(C)(C)C)c1nnc(C)n1-2 [NCGC00250412-19] | -66.8
O=C1CN2Cc3c(ccc(Cl)c3Cl)N=C2N1 + Cc1sc2c(c1C)C(c1ccc(Cl)cc1)=N[C@@H](CC(=O)OC(C)(C)C)c1nnc(C)n1-2 [NCGC00250412-19] | -40.1
CC(C)NCC(O)COc1ccc(COCCOC(C)C)cc1 (stereo not drawn) + Cc1sc2c(c1C)C(c1ccc(Cl)cc1)=N[C@@H](CC(=O)OC(C)(C)C)c1nnc(C)n1-2 [NCGC00250412-19] | -77.4
C=C(C)[C@H]1Cc2c(ccc3c2O[C@@H]2COc4cc(OC)c(OC)cc4[C@@H]2C3=O)O1 + Cc1sc2c(c1C)C(c1ccc(Cl)cc1)=N[C@@H](CC(=O)OC(C)(C)C)c1nnc(C)n1-2 [NCGC00250412-19] | -153
CN(C)Cc1c(C(=O)NCCOc2ccc(C(=O)NO)cc2)oc2ccccc12 + Cc1sc2c(c1C)C(c1ccc(Cl)cc1)=N[C@@H](CC(=O)OC(C)(C)C)c1nnc(C)n1-2 [NCGC00250412-19] | -152
COC(=O)C1=CCCN(C)C1 + Cc1sc2c(c1C)C(c1ccc(Cl)cc1)=N[C@@H](CC(=O)OC(C)(C)C)c1nnc(C)n1-2 [NCGC00250412-19] | -172
CC[C@H]1OC(=O)[C@H](C)[C@@H](O[C@H]2C[C@@](C)(OC)[C@@H](O)[C@H](C)O2)[C@H](C)[C@@H](O[C@@H]2O[C@H](C)C[C@H](N(C)C)[C@H]2O)[C@](C)(O)C[C@@H](C)/C(=N\OCOCCOC)[C@H](C)[C@@H](O)[C@]1(C)O + Cc1sc2c(c1C)C(c1ccc(Cl)cc1)=N[C@@H](CC(=O)OC(C)(C)C)c1nnc(C)n1-2 [NCGC00250412-19] | -180
O=C(NCCS(=O)(=O)c1ccc(C(F)(F)F)cn1)c1ccc(Cl)cc1 + Cc1sc2c(c1C)C(c1ccc(Cl)cc1)=N[C@@H](CC(=O)OC(C)(C)C)c1nnc(C)n1-2 [NCGC00250412-19] | 83.6
CC(C)CC(=O)Nc1n[nH]c2c1CN(C(=O)C1CCN(C)CC1)C2(C)C + Cc1sc2c(c1C)C(c1ccc(Cl)cc1)=N[C@@H](CC(=O)OC(C)(C)C)c1nnc(C)n1-2 [NCGC00250412-19] | -619

Compound | excess over highest single agent
CC(C)C[C@H](NC(=O)CNC(=O)c1cc(Cl)ccc1Cl)B(O)O + Cc1sc2c(c1C)C(c1ccc(Cl)cc1)=N[C@@H](CC(=O)OC(C)(C)C)c1nnc(C)n1-2 [NCGC00250412-19] | -170
CC[C@H]1CN2CCc3cc(OC)c(OC)cc3[C@@H]2C[C@@H]1C[C@H]1NCCc2cc(OC)c(OC)cc21 + Cc1sc2c(c1C)C(c1ccc(Cl)cc1)=N[C@@H](CC(=O)OC(C)(C)C)c1nnc(C)n1-2 [NCGC00250412-19] | -163
C[C@](Cc1c[nH]c2ccccc12)(NC(=O)OC1[C@H]2C[C@@H]3C[C@@H](C[C@H]1C3)C2)C(=O)NC[C@H](NC(=O)CCC(=O)O)c1ccccc1 (stereo partly drawn) + Cc1sc2c(c1C)C(c1ccc(Cl)cc1)=N[C@@H](CC(=O)OC(C)(C)C)c1nnc(C)n1-2 [NCGC00250412-19] | 28.3
CCn1cc(-c2ccnc3[nH]c(-c4cccc(CN(C)C)c4)cc23)c(-c2ccc(NC(=O)N(C)C)cc2)n1 + Cc1sc2c(c1C)C(c1ccc(Cl)cc1)=N[C@@H](CC(=O)OC(C)(C)C)c1nnc(C)n1-2 [NCGC00250412-19] | -370
CCOc1ccn(-c2ccc(F)cc2)c(=O)c1C(=O)Nc1ccc(Oc2ccnc(N)c2Cl)c(F)c1 + Cc1sc2c(c1C)C(c1ccc(Cl)cc1)=N[C@@H](CC(=O)OC(C)(C)C)c1nnc(C)n1-2 [NCGC00250412-19] | -79.2
Cc1nc(Nc2n[nH]c3c2CN(C(=O)N[C@H](CN(C)C)c2ccccc2)C3(C)C)c2sccc2n1 + Cc1sc2c(c1C)C(c1ccc(Cl)cc1)=N[C@@H](CC(=O)OC(C)(C)C)c1nnc(C)n1-2 [NCGC00250412-19] | -503
CNC[C@H](O)c1cccc(O)c1 + Cc1sc2c(c1C)C(c1ccc(Cl)cc1)=N[C@@H](CC(=O)OC(C)(C)C)c1nnc(C)n1-2 [NCGC00250412-19] | 65.2
O=S(=O)(NCCNCC=Cc1ccc(Br)cc1)c1cccc2cnccc12 + Cc1sc2c(c1C)C(c1ccc(Cl)cc1)=N[C@@H](CC(=O)OC(C)(C)C)c1nnc(C)n1-2 [NCGC00250412-19] | 29.6
N[C@@H]1CN(c2c(F)cc3c(=O)c(C(=O)O)cn([C@@H]4C[C@@H]4F)c3c2Cl)CC12CC2 + Cc1sc2c(c1C)C(c1ccc(Cl)cc1)=N[C@@H](CC(=O)OC(C)(C)C)c1nnc(C)n1-2 [NCGC00250412-19] | -141
C[C@H](NC(=O)Cc1cc(F)cc(F)c1)C(=O)N[C@@H]1C(=O)N(C)c2ccccc2-c2ccccc21 + Cc1sc2c(c1C)C(c1ccc(Cl)cc1)=N[C@@H](CC(=O)OC(C)(C)C)c1nnc(C)n1-2 [NCGC00250412-19] | -28.3
O=C(O)c1ccc(Nc2ncc3c(n2)-c2ccc(Cl)cc2C(c2c(F)cccc2F)=NC3)cc1 + Cc1sc2c(c1C)C(c1ccc(Cl)cc1)=N[C@@H](CC(=O)OC(C)(C)C)c1nnc(C)n1-2 [NCGC00250412-19] | -157
OCc1ccc(-c2ccc(-c3ccc(CO)s3)o2)s1 + Cc1sc2c(c1C)C(c1ccc(Cl)cc1)=N[C@@H](CC(=O)OC(C)(C)C)c1nnc(C)n1-2 [NCGC00250412-19] | 33.9
O=c1c(-c2ccc(O)cc2)coc2cc(O)cc(O)c12 + Cc1sc2c(c1C)C(c1ccc(Cl)cc1)=N[C@@H](CC(=O)OC(C)(C)C)c1nnc(C)n1-2 [NCGC00250412-19] | -46.5
CSc1cccc(Nc2ncc3cc(-c4c(Cl)cccc4Cl)c(=O)n(C)c3n2)c1 + Cc1sc2c(c1C)C(c1ccc(Cl)cc1)=N[C@@H](CC(=O)OC(C)(C)C)c1nnc(C)n1-2 [NCGC00250412-19] | -159
O=c1ccn(C2OC(CO)C(O)C2F)c(=O)[nH]1 (stereo not drawn) + Cc1sc2c(c1C)C(c1ccc(Cl)cc1)=N[C@@H](CC(=O)OC(C)(C)C)c1nnc(C)n1-2 [NCGC00250412-19] | 46.9
CC1=C(C(=O)Nc2cc3cn[nH]c3cc2F)C(c2ccc(Cl)cc2F)N=C(c2ccnc(Cl)c2)N1 (stereo not drawn) + Cc1sc2c(c1C)C(c1ccc(Cl)cc1)=N[C@@H](CC(=O)OC(C)(C)C)c1nnc(C)n1-2 [NCGC00250412-19] | -142
Cc1nc2cnc3ccc(C#Cc4cccnc4)cc3c2n1-c1ccc(C(C)(C)C#N)cc1 + Cc1sc2c(c1C)C(c1ccc(Cl)cc1)=N[C@@H](CC(=O)OC(C)(C)C)c1nnc(C)n1-2 [NCGC00250412-19] | -222
NC(CO)(CO)CCc1ccc(Sc2cccc(OCc3ccccc3)c2)cc1Cl + Cc1sc2c(c1C)C(c1ccc(Cl)cc1)=N[C@@H](CC(=O)OC(C)(C)C)c1nnc(C)n1-2 [NCGC00250412-19] | -103
COc1cc([C@@H]2c3cc4c(cc3[C@H](O)[C@H]3COC(=O)[C@H]23)OCO4)cc(OC)c1OC + Cc1sc2c(c1C)C(c1ccc(Cl)cc1)=N[C@@H](CC(=O)OC(C)(C)C)c1nnc(C)n1-2 [NCGC00250412-19] | -129

Random excerpt: two records from the list.
Compound | excess over highest single agent
CNC[C@H](O)c1cccc(O)c1 + Cc1sc2c(c1C)C(c1ccc(Cl)cc1)=N[C@@H](CC(=O)OC(C)(C)C)c1nnc(C)n1-2 [NCGC00250412-19] | 65.2
O=C(O)c1ccc(Nc2ncc3c(n2)-c2ccc(Cl)cc2C(c2c(F)cccc2F)=NC3)cc1 + Cc1sc2c(c1C)C(c1ccc(Cl)cc1)=N[C@@H](CC(=O)OC(C)(C)C)c1nnc(C)n1-2 [NCGC00250412-19] | -157
